The campaign covered roughly 390,000 compounds. About 910 (0.23%) were called active. The shares of active, inactive and inconclusive entries below differ from those in the screen. The call rests on the fitted dose curve; in most records, active means well fitted inhibition curve with a large enough effect; inconclusive means small, poorly fitted or top-dose-only effect; inactive means no such curve, though single readings can be large or run the other way. A potency beside an inconclusive call is a rough fit, not a confirmed value.
What follows are compounds tested against Ubiquitin carboxyl-terminal hydrolase 1 (Homo sapiens) (UniProt O94782) (assay: Inhibitors of USP1/UAF1: Primary Screen). Conditions: recombinant USP1/UAF1, Ub-Rhodamine cleavage fluorescence; activity change, negative = inhibition: at 57.1 µM (top of the series).
Method in brief: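 USP1/UAF1 complex at 1 nM was preincubated with compound for 15 min at room temperature, then Ub-Rho substrate (150nM final) was added. Fluorescence (480/540 nm) was read kinetically, 6 reads every 60 seconds.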
Further: nearly all actives have a fitted effect of over 60% in size.
On the % scale 0 is the no-effect control and ±100 the full control effect; potency means the concentration at half of the fitted maximal effect.

Chains of the proteins cited; added tags and fusions are not shown. Lines headed by an entry give the natural chain unless they say otherwise; changes in a name come on top.
UniProt O94782: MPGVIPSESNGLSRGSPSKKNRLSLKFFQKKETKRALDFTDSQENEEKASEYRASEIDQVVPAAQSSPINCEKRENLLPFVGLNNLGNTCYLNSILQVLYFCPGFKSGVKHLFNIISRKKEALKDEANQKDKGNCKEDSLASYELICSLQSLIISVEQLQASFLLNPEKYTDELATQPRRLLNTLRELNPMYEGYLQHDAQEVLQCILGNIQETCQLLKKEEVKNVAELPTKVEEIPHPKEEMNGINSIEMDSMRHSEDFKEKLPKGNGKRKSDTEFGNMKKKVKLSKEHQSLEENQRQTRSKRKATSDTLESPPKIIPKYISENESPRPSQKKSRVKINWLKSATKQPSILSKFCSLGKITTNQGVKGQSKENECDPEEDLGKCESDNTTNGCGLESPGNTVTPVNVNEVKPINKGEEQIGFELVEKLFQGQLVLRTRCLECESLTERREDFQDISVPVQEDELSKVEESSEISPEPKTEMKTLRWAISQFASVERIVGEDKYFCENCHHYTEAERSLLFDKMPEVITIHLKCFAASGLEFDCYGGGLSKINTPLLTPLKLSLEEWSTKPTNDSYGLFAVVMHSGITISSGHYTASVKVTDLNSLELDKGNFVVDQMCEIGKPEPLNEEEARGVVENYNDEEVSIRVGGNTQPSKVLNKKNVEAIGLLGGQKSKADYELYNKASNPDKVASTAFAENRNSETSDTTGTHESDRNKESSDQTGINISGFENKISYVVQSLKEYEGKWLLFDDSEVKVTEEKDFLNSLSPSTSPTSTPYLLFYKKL

**Q.** For Cc1ccccc1-c1nc(SCC(=O)NCC2CCCO2)c2c(=O)n(C)c(=O)n(C)c2n1 (stereo not given), which Potency is on record?
**A.** inconclusive: 11.2 µM [inhibitor, partial curve, poor fit]

**Q.** For Cc1ccc([C@@H]2CC=C(C(=O)O)[C@H](c3ccc(Br)cc3)N2S(=O)(=O)c2ccccc2C)cc1, which Potency is on record?
**A.** inconclusive: 63.1 µM [inhibitor, partial curve, poor fit]

**Q.** Which “activity change, negative = inhibition” value does the source give for O=[N+]([O-])c1cccc(N2Cc3ccccc3C2)c1 here?
**A.** inactive: -21.7%

**Q.** Which Potency does the source give for Cc1cncn1CCc1nc2c3ccccc3nc(SCC(=O)Nc3cccc(Cl)c3)n2n1 here?
**A.** inactive

**Q.** NCCCC[C@@H](C(=O)NCCCCCCCCCCC(=O)N1CCNCC1)n1cc(CCCC(=O)O)nn1 was tested. Which Potency did it give?
**A.** inconclusive: 0.251 µM [inhibitor, full curve]

**Q.** CCOC(=O)C1CCCN(C(=O)Cn2nc(CC)n3c(cc4sccc43)c2=O)C1 (stereo not given) was tested. Which Potency did it give?
**A.** inconclusive: 5.01 µM [inhibitor, partial curve]

**Q.** Which activity change, negative = inhibition does the source give for CCOC(=O)C1(CCc2ccccc2)CCN(C(=O)c2ccoc2)CC1 here?
**A.** inconclusive: -11.9% [inhibitor]

**Q.** With COc1cccc(NC(=O)Cn2c(CCC(=O)O)ccc2-c2ccc(Cl)cc2)c1 as the compound, how does the Potency read?
**A.** inconclusive: 39.8 µM [inhibitor, partial curve]

**Q.** With Cc1c(C(=O)NCc2c(F)cc(F)cc2F)oc2ccc(S(=O)(=O)N3CCOCC3)cc12 as the compound, how does the Potency read?
**A.** inconclusive: 35.5 µM [inhibitor, partial curve]

**Q.** How did the Potency turn out when CCCCCc1c2c(cc(O)c1C(=O)O)OC(=O)c1c(cc(OC)cc1C(=O)CCCC)O2 was run?
**A.** inconclusive: 44.7 µM [inhibitor, partial curve]

**Q.** With Brc1ccc(-c2cn3nc4c(nc3n2)CCCC4)cc1 as the compound, how does the Potency read?
**A.** inconclusive: 35.5 µM [inhibitor, partial curve]

**Q.** How did the “activity change, negative = inhibition” value turn out when CCc1ccccc1NC(=O)c1cc(S(=O)(=O)N2CCCC2)cn1C was run?
**A.** inactive: -20.7%

**Q.** How did the Potency turn out when COc1ccc(OC)c(NC(=O)c2c(NCc3cccs3)sc3c2CCCC3)c1 was run?
**A.** inconclusive: 0.251 µM [inhibitor, full curve, poor fit]

**Q.** For CN(c1ccc(C(=O)NCC2CCCO2)cc1)S(=O)(=O)c1ccc(Cl)cc1 (stereo not given), which Potency is on record?
**A.** inconclusive: 0.251 µM [inhibitor, full curve, poor fit]

**Q.** For Cc1ccc(C(=O)Nc2cccc(-c3nc4ccccc4o3)c2)c(Cl)c1, which “activity change, negative = inhibition” value is on record?
**A.** inactive: -18.5%

**Q.** How did the Potency turn out when COc1ccc([C@@H]2C[C@@H](c3ccccc3)Oc3cc(OC)c(OC)c(OC)c32)cc1 was run?
**A.** inconclusive: 2.24 µM [inhibitor, full curve, poor fit]

**Q.** How did the Potency turn out when COCCCNC(=O)CSc1nc2cc(OC)c(OC)cc2c2nc(-c3ccccc3)nn12 was run?
**A.** inconclusive: 5.62 µM [inhibitor, partial curve]

**Q.** For CCOC(=O)/C=C/c1ccc(C(F)(F)F)cc1S(=O)(=O)NC(C)(C)C, which Potency is on record?
**A.** inconclusive: 44.7 µM [inhibitor, partial curve, poor fit]

**Q.** For CC1CCCCN1c1nnc(NC(=O)Nc2ccccc2F)s1 (stereo not given), which “activity change, negative = inhibition” value is on record?
**A.** inactive: 7.52%

**Q.** Which Potency does the source give for O=[N+]([O-])c1ccc(N/N=C/c2c[nH]c3ccccc23)c(S(=O)(=O)Nc2ccc(Cl)cc2)c1 here?
**A.** inconclusive: 20 µM [inhibitor, partial curve]

**Q.** How did the Potency turn out when CCN(CC)P(=O)(Nc1cccc(C(F)(F)F)c1)c1ccc(N(C)C)cc1NC(=O)c1ccco1 (stereo not given) was run?
**A.** inconclusive: 44.7 µM [inhibitor, partial curve]

**Q.** Which Potency does the source give for COC(=O)/C=C/c1ccccc1CN1[C@@H](CC(=O)OC)c2ccccc2S1(=O)=O here?
**A.** inconclusive: 0.282 µM [inhibitor, full curve, poor fit]

**Q.** For C[C@@H](c1ccccc1)N1Cc2ccccc2Oc2cc(Br)ccc2S1(=O)=O, which Potency is on record?
**A.** inconclusive: 39.8 µM [inhibitor, partial curve, poor fit]

**Q.** With Cc1nc2nc(SCC(=O)NCc3ccccc3Cl)nn2c(C)c1Cc1ccccc1 as the compound, how does the Potency read?
**A.** inconclusive: 70.8 µM [inhibitor, partial curve, poor fit]

**Q.** How did the “activity change, negative = inhibition” value turn out when Cc1ccc2c(c1)N=C(c1ccccc1)CC(C(Cl)Cl)=N2 was run?
**A.** inactive: -21.6%

**Q.** For COc1cc(NS(=O)(=O)c2ccc3[nH]c4c(c3c2)CCCCCC4)cc(OC)c1, which Potency is on record?
**A.** inconclusive: 5.01 µM [inhibitor, full curve]

**Q.** With CC1=C(C#N)C(c2cn(-c3ccccc3)nc2-c2cccs2)C(C#N)=C(C)N1 as the compound, how does the Potency read?
**A.** inconclusive: 3.16 µM [inhibitor, partial curve]

**Q.** O=C(NCCc1ccccc1)c1ccccc1C(=O)NCCc1ccccc1 was tested. Which Potency did it give?
**A.** inconclusive: 0.126 µM [inhibitor, full curve, poor fit]

**Q.** For CCOc1cc(/C=C(\C#N)C(=O)Nc2cccc(C(=O)O)c2)ccc1OCc1ccccc1Cl, which Potency is on record?
**A.** inconclusive: 39.8 µM [inhibitor, partial curve]

**Q.** With Cc1nn2c(c1-c1ccc(Cl)cc1)N=C(c1ccco1)CC2c1ccccc1 (stereo not given) as the compound, how does the Potency read?
**A.** inconclusive: 39.8 µM [inhibitor, partial curve]

**Q.** For COc1ccc2[nH]c3c(=O)n4c(nc3c2c1)SCC4, which Potency is on record?
**A.** inconclusive: 0.631 µM [inhibitor, full curve, poor fit]

**Q.** Which Potency does the source give for O=C(NCc1nc2ccccc2[nH]1)C1=C[C@H](c2coc3ccccc3c2=O)C[C@H](OCc2ccc(CO)cc2)O1 here?
**A.** inconclusive: 44.7 µM [inhibitor, partial curve, poor fit]

**Q.** For COc1ccc(C(=O)OCC2CC(c3ccccc3)N(C)O2)cc1 (stereo not given), which “activity change, negative = inhibition” value is on record?
**A.** inactive: -1.24%

**Q.** How did the Potency turn out when O=c1[nH]c2cc3c(cc2cc1CN(Cc1cccs1)Cc1nnnn1Cc1ccco1)OCCO3 was run?
**A.** inconclusive: 11.2 µM [inhibitor, partial curve]

**Q.** CN(C(=O)CSc1cn(CC(=O)N2CCOCC2)c2ccccc12)c1ccccc1 was tested. Which Potency did it give?
**A.** inconclusive: 4.47 µM [inhibitor, partial curve]

**Q.** Which Potency does the source give for O=C1C(O)CC2c3ccccc3CC3(CCCC3)N12 (stereo not given) here?
**A.** inconclusive: 44.7 µM [inhibitor, partial curve, poor fit]

**Q.** CCCCN(CC)CCNC(=O)Cn1cc2c(n1)-c1c(oc(C(=O)N3CCCC3)c1C)CC2 was tested. Which Potency did it give?
**A.** inconclusive: 28.2 µM [inhibitor, partial curve, poor fit]

**Q.** For Cc1cccc(OCC(=O)N/N=C\c2cn(C)c3ccccc23)c1, which “activity change, negative = inhibition” value is on record?
**A.** inactive: -16.3%

**Q.** How did the Potency turn out when Cc1[nH][nH]c(=O)c1C(c1ccc(-c2cccc(C(=O)O)c2)o1)c1c(C)[nH][nH]c1=O was run?
**A.** inconclusive: 31.6 µM [inhibitor, partial curve]

**Q.** COC(=O)C[C@H]1C[C@@H]2c3cc(NS(=O)(=O)c4ccc(OC)cc4)ccc3O[C@@H]2[C@H](CO)O1 was tested. Which Potency did it give?
**A.** inconclusive: 0.282 µM [inhibitor, full curve]

**Q.** How did the Potency turn out when CCOCCCNC(=S)N1C2CCC1CC(NC(=O)NC1CCCCC1)C2 (stereo not given) was run?
**A.** inconclusive: 8.91 µM [inhibitor, partial curve]

**Q.** Which Potency does the source give for O=C(CCS(=O)(=O)c1nc(-c2ccc3c(c2)OCO3)cc(C(F)(F)F)n1)Nc1ccccc1F here?
**A.** inconclusive: 2.51 µM [inhibitor, full curve, poor fit]

**Q.** Which Potency does the source give for COc1ccc(CCNC(=O)Cc2cccs2)cc1OC here?
**A.** inconclusive: 4.47 µM [inhibitor, single point]

**Q.** For Fc1ccc(C2Nc3cccc4cccc(c34)N2)cc1, which Potency is on record?
**A.** inconclusive: 44.7 µM [inhibitor, partial curve, poor fit]

**Q.** CCOC(=O)Cc1c(C)c2ccc(N(CC)CC)cc2oc1=O was tested. Which “activity change, negative = inhibition” value did it give?
**A.** inactive: -23.9%

**Q.** For CN1C(=O)c2ccccc2CC12c1ccccc1C(=O)N2C (stereo not given), which “activity change, negative = inhibition” value is on record?
**A.** inactive: -24.2%

**Q.** For Cc1ccc(NC(=O)CSc2cn(CC(=O)N3CCCCCC3)c3ccccc23)cc1, which Potency is on record?
**A.** inconclusive: 11.2 µM [inhibitor, partial curve, poor fit]

**Q.** Which “activity change, negative = inhibition” value does the source give for C=CCOc1ccccc1CN1CCCC(CCC(=O)N(C)CCc2ccccn2)C1 (stereo not given) here?
**A.** inactive: -19%

**Q.** Which Potency does the source give for COc1ccc(-n2nc(C(=O)NCC(=O)NCCCN3CC(C)CC(C)C3)c3ccccc3c2=O)cc1 (stereo not given) here?
**A.** inconclusive: 0.316 µM [inhibitor, full curve, poor fit]

**Q.** How did the “activity change, negative = inhibition” value turn out when Cc1cccc(NCC(=O)N/N=C\c2c[nH]c3ccccc23)c1 was run?
**A.** inactive: -3.54%

**Q.** Which Potency does the source give for Cc1ccc2nc(N3C(=O)C(O)=C(C(=O)c4ccco4)C3c3cccc(O)c3)sc2c1 (stereo not given) here?
**A.** inconclusive: 44.7 µM [inhibitor, partial curve, poor fit]

**Q.** For Cc1ccc(N2CC(NC(=O)c3ccc(S(=O)(=O)N4CCCCC4)cc3)CC2=O)cc1 (stereo not given), which Potency is on record?
**A.** inconclusive: 50.1 µM [inhibitor, partial curve, poor fit]

**Q.** With COc1ccc(C2=NS(=O)(=O)N(C)C(C(=O)N3CCCCC3)=C2)cc1OC as the compound, how does the Potency read?
**A.** inconclusive: 100 µM [inhibitor, partial curve, poor fit]

**Q.** Which Potency does the source give for COc1ccccc1C(=O)N/C(=C\c1ccccc1)C(=O)NC(Cc1ccccc1)C(=O)O (stereo not given) here?
**A.** inconclusive: 5.62 µM [inhibitor, single point]

**Q.** Which Potency does the source give for O=c1oc2ccc(Br)cc2cc1-c1csc(-c2ccccc2)n1 here?
**A.** inconclusive: 3.98 µM [inhibitor, partial curve]

**Q.** Which Potency does the source give for Cc1ccc(NC(=O)Cn2c(=O)n(CCc3ccccc3)c(=O)c3c4c(sc32)CCCC4)c(C)c1 here?
**A.** inconclusive: 44.7 µM [inhibitor, partial curve, poor fit]

**Q.** Which Potency does the source give for COc1ccc(S(=O)(=O)Cc2ccc(C(=O)N3CCN(c4cccc(C)c4)C(C)C3)o2)cc1 (stereo not given) here?
**A.** inconclusive: 0.794 µM [inhibitor, full curve]

**Q.** How did the Potency turn out when O=C(NCc1ccccn1)c1nc(Cn2ccc([N+](=O)[O-])n2)no1 was run?
**A.** inconclusive: 8.91 µM [inhibitor, partial curve, poor fit]

**Q.** With COc1cccc(C(=O)CSc2nc3cccnc3n2C)c1 as the compound, how does the Potency read?
**A.** inconclusive: 5.01 µM [inhibitor, partial curve, poor fit]

**Q.** How did the “activity change, negative = inhibition” value turn out when Cn1c(C(=O)N2CCN(c3ccc([N+](=O)[O-])cc3)CC2)cc2c(=O)[nH]c3ccccc3c21 was run?
**A.** inactive: -6.43%

Source: PubChem BioAssay AID743255 (National Center for Advancing Translational Sciences (NCATS), 2014)
